Experimental data as given in patent publication US20250027073A1.
These are yes or no findings as the source states them, for the method shown. Some binding calls cover weakened binding; strength is not graded here.

Protein sequences, listed by entry. Tags and fused reporters are not part of them. Lines headed by an entry give the natural chain unless they say otherwise; changes in a name come on top. Residues count along the entry.
UniProt P25942, residues 21-277: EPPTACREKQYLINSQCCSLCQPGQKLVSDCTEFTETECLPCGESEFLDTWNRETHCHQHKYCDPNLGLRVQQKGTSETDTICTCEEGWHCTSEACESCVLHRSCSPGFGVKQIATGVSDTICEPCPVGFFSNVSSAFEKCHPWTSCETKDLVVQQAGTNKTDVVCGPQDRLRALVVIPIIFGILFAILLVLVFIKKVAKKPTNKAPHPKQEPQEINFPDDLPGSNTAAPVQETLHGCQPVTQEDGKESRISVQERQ
UniProt P27548: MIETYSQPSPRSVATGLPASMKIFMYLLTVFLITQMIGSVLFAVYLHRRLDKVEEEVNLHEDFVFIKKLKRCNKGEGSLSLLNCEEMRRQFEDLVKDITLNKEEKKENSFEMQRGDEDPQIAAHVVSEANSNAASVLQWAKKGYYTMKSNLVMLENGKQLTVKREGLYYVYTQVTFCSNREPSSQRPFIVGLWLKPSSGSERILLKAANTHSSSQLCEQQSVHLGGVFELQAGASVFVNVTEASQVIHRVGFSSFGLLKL

Biological target: CD40 (UniProt P25942)
Assay: flow cytometry; GFP viruses displaying CD40L on CD40 expressing Raji B cells

## wild type CD40 ligand (CD40L), displayed on the lentiviral surface (from UniProt P27548 1-260)
  binding: binds
